Like-named read-outs stand apart in the source and are kept apart here. For at least one compound, name, drawing or mass did not settle the structure.
What was measured:
U2OS EGFP-2XFYVE cells = assay: Class III PI(3)P assay; assay type: cell-based; conditions: 10 uM, control
neutrophil = conditions: cited from earlier work
Class I PI 3-kinases = conditions: cited from earlier work
CHO-IR-AKT1-EGFP cells = assay: AKT membrane ruffling assay; assay type: cell-based; conditions: 10 uM, control
[1] = test system: MDA MB468 Forkhead-DiversaGFP cells; assay: Forkhead translocation assay; assay type: cell-based; conditions: 10 uM, control

Question: For `COC[C@H]1OC(=O)c2coc3c2[C@@]1(C)C1=C(C3=O)[C@@H]2CCC(=O)[C@@]2(C)C[C@H]1OC(C)=O` [wortmannin], which “PI(3)P on endosomes” value (U2OS EGFP-2XFYVE cells) is on record?
Answer: The value was “PI(3)P depleted from endosomes”.

Question: What about the neutrophil migration (neutrophil) of the same compound?
Answer: Its neutrophil migration is “block”.

Question: What about the superoxide release (neutrophil) of the same compound?
Answer: The superoxide release was “block”.

Question: What about the IC50 (Class I PI 3-kinases; read-out: IC50 against each of the various Class I PI 3-kinases) of the same compound?
Answer: Its IC50 is 1 to 10 nM.

Question: And the AKT localisation (CHO-IR-AKT1-EGFP cells)?
Answer: The AKT localisation was “AKT is cytoplasmic”.

Question: And the Forkhead localisation [1]?
Answer: Its Forkhead localisation is “Forkhead is nuclear”.

Question: With `O=c1cc(N2CCOCC2)oc2c(-c3ccccc3)cccc12` [LY294002] as the compound, how does the neutrophil migration (neutrophil) read?
Answer: Its neutrophil migration is “block”.

Question: What about the superoxide release (neutrophil) of the same compound?
Answer: Its superoxide release is “block”.

Question: What about the IC50 (Class I PI 3-kinases; read-out: IC50 against each of these PI 3-kinases) of the same compound?
Answer: Its IC50 is roughly 1000 nM.
